From article PMC10939263
Results are given in words; binding and its absence hold for the method and conditions named. In cells and extracts the contact can be indirect. Some binding calls cover weakened binding; strength is not graded here.

Protein sequences, listed by entry. Tags and fused reporters are not part of them. Lines headed by an entry give the natural chain unless they say otherwise; changes in a name come on top. Chains listed by the source or under a name are the forms on record and can include a tag or linker. Residues count along the entry.
UniProt P07948: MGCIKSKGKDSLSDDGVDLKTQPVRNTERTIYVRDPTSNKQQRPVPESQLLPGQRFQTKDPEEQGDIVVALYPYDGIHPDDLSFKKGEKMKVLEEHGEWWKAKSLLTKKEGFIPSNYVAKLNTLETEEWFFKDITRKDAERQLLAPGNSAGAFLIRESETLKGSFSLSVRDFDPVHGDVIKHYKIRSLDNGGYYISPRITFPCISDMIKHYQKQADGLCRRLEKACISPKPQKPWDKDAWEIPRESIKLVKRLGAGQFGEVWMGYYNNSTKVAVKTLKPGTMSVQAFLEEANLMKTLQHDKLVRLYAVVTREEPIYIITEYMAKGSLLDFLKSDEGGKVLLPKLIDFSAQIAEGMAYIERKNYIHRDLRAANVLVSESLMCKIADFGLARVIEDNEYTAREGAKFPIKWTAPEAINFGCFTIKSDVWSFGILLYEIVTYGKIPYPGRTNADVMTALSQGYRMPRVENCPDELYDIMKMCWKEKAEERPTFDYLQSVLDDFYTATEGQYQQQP
UniProt P51451: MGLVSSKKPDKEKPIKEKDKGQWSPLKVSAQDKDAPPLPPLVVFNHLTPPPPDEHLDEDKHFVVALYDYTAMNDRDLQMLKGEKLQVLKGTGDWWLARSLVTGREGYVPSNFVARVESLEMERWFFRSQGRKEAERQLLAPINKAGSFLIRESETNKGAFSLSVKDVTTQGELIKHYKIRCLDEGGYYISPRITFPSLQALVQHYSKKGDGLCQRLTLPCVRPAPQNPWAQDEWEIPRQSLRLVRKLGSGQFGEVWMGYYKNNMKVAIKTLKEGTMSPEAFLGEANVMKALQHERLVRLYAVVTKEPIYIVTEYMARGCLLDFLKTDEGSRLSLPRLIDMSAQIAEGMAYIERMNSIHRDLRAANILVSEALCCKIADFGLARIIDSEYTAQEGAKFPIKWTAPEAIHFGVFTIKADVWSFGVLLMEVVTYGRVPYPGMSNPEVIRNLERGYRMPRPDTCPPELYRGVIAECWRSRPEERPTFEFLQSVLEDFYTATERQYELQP
UniProt P08631, residues 22-526: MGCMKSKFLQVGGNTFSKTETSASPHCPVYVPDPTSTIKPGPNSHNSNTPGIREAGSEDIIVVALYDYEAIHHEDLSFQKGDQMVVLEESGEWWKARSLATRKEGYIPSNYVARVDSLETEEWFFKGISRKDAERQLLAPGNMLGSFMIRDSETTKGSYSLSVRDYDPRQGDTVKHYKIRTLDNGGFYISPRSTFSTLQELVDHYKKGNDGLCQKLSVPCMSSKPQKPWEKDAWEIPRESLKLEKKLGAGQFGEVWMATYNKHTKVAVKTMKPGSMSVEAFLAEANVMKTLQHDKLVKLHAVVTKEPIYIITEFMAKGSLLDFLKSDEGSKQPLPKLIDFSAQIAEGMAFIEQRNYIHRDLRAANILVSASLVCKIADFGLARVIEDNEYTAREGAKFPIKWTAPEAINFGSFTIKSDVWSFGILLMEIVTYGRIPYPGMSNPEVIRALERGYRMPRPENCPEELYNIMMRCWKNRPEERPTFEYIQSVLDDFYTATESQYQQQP
UniProt P06239: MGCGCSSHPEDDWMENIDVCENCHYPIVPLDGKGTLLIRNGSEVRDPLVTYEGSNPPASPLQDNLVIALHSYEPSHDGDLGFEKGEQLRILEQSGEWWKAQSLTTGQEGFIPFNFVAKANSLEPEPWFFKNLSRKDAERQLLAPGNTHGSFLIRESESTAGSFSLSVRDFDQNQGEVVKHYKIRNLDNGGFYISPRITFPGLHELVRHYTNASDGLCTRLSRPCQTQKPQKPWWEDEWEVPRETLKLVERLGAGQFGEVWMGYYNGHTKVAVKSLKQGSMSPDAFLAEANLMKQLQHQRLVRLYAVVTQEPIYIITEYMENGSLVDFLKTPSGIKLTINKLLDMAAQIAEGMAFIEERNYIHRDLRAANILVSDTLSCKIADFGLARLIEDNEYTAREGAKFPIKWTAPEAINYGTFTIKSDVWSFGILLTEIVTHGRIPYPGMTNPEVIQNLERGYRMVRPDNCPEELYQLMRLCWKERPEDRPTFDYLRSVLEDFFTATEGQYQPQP
UniProt P06241: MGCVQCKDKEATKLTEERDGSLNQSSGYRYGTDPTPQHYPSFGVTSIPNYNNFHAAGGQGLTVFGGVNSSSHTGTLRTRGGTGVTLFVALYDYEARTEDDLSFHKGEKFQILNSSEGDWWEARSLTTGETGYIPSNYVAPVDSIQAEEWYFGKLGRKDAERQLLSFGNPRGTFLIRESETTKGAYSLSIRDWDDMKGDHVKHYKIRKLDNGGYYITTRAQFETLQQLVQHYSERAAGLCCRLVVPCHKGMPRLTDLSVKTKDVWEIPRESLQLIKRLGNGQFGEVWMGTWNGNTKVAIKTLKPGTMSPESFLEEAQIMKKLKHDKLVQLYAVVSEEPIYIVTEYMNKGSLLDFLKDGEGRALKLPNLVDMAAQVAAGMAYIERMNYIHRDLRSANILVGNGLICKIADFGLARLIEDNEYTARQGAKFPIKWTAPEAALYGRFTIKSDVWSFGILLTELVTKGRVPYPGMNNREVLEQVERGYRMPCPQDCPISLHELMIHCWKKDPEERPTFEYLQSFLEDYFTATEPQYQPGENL
FYNT isoform of FYN, N1-fused (P06241, form named): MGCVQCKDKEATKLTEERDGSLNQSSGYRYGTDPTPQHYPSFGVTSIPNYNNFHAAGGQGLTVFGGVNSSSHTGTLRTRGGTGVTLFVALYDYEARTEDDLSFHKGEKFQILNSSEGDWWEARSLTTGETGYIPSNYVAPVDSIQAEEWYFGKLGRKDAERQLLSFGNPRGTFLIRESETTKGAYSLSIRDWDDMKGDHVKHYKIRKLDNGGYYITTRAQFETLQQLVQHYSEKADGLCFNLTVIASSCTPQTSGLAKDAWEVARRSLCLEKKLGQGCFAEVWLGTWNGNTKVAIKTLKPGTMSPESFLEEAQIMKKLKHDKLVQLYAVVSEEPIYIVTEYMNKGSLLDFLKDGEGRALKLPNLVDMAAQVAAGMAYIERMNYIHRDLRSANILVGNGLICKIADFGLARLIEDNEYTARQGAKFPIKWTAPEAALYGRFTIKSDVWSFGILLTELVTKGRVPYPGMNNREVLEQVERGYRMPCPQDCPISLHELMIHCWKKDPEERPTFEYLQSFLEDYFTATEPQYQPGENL
FYN (isoform without exon 7), C1-fused (P06241, form named): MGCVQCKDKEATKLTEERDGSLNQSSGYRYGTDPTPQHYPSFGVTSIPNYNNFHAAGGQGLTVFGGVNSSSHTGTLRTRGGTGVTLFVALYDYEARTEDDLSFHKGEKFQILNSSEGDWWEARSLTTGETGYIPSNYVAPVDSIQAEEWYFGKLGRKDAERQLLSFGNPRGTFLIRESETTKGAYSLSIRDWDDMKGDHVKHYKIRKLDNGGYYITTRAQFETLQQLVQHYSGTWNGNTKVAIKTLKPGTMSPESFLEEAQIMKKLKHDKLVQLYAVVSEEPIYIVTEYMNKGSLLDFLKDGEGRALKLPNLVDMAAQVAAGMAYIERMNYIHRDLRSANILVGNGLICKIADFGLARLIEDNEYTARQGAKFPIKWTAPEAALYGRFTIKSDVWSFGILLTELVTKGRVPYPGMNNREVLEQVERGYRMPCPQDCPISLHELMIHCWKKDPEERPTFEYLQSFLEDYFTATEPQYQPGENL
UniProt P07947: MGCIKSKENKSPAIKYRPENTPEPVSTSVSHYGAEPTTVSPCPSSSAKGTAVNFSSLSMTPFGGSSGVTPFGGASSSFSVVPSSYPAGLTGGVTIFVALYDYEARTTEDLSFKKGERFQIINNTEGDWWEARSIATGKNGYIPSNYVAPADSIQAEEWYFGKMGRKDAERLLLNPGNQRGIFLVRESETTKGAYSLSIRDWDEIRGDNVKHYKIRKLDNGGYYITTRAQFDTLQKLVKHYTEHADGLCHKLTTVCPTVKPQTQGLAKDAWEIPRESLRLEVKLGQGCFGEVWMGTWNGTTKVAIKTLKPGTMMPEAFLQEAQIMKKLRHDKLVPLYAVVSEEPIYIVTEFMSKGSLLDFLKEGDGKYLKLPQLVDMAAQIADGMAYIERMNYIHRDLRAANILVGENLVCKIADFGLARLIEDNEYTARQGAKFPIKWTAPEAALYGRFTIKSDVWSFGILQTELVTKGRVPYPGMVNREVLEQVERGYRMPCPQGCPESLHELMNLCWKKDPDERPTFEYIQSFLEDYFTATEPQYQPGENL
UniProt Q86WV1: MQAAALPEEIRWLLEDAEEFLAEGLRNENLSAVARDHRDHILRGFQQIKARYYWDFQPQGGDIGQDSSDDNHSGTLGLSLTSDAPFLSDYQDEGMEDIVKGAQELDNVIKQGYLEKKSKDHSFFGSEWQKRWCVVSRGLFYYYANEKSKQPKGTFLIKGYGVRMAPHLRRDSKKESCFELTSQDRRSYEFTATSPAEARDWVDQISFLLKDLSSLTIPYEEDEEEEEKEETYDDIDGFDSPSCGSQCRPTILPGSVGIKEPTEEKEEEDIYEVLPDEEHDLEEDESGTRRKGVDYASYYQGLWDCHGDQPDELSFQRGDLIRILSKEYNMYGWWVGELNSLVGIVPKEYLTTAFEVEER
UniProt O75563: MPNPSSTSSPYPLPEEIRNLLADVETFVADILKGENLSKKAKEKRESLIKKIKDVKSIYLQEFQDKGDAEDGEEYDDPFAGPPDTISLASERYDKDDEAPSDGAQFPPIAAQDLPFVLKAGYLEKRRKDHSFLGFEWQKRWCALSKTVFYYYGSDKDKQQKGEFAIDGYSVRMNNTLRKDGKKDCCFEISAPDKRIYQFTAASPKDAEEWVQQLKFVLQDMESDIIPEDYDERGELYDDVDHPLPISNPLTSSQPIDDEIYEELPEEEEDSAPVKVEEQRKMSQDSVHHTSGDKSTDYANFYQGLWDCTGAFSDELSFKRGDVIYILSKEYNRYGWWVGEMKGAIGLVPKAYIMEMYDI

How the values were obtained:
Experiment in all cases: split reporter; Gaussia princeps luciferase complementation assay in human HEK293T cells; Gluc2 at the N terminus of SKAP1 or SKAP2 (N2), Gluc1 at the N terminus (N1) or C terminus (C1) of the SRC kinase; 100 ng plasmid pair, PEI; luminescence read in lysate one day later; normalized luminescence ratio (NLR), given relative to wild type or to SKAP2
[1] = biological target: LYN, C1-fused (UniProt P07948)
[2] = biological target: BLK, C1-fused (UniProt P51451)
[3] = biological target: HCK wild type, N1-fused (UniProt P08631)
[4] = biological target: LCK Y505F mutant, C1-fused (UniProt P06239)
[5] = biological target: FYNT isoform of FYN, N1-fused (UniProt P06241)
[6] = biological target: LCK R154A mutant, C1-fused (UniProt P06239)
[7] = biological target: FYNB isoform of FYN, C1-fused (UniProt P06241)
[8] = biological target: FYN (isoform without exon 7), C1-fused (UniProt P06241)
[9] = biological target: LCK wild type, N1-fused (UniProt P06239)
[10] = biological target: LYN, N1-fused (UniProt P07948)
[11] = biological target: YES, C1-fused (UniProt P07947)
[12] = biological target: HCK wild type, C1-fused (UniProt P08631)
[13] = biological target: FGR, C1-fused (UniProt P09769)
[14] = biological target: FYNB isoform of FYN, N1-fused (UniProt P06241)

| binding [1] | binding [2] | binding [3] | binding [4] | binding [5] | binding [6] | binding [7] | binding [8] | binding [9] | binding [10] | binding [11] | binding [12] | binding [13] | binding [14] | Substance |
| --- | --- | --- | --- | --- | --- | --- | --- | --- | --- | --- | --- | --- | --- | --- |
| binds | binds | binds | binds | binds | binds | binds | binds | binds | binds | binds | binds | binds | binds | SRC kinase associated phosphoprotein 1 (SKAP1), wild type, N2-fused (from UniProt Q86WV1 1-359) |
| binds | binds | binds | binds | binds | binds | binds | binds | binds | binds | binds | binds | binds | binds | SRC kinase associated phosphoprotein 2 (SKAP2), wild type, N2-fused (from UniProt O75563 1-359) |
